No constants are given. Whether binding was seen depends on the method and setting. In cells and extracts the contact can be indirect. Here binding means that the protein was enriched with, or labelled near, the bait; the list need not be complete.
B1: MLF2 (protein, UniProt Q15773 1-248)
chain: MFRFMRDVEPEDPMFLMDPFAIHRQHMSRMLSGGFGYSPFLSITDGNMPGTRPASRRMQQAGAVSPFGMLGMSGGFMDMFGMMNDMIGNMEHMTAGGNCQTFSSSTVISYSNTGDGAPKVYQETSEMRSAPGGIRETRRTVRDSDSGLEQMSIGHHIRDRAHILQRSRNHRTGDQEERQDYINLDESEAAAFDDEWRRETSRFRQQRPLEFRRLESSGAGGRRAEGPPRLAIQGPEDSPSRQSRRYDW
B2: PRKRA (protein, UniProt O75569 1-313)
chain: MSQSRHRAEAPPLEREDSGTFSLGKMITAKPGKTPIQVLHEYGMKTKNIPVYECERSDVQIHVPTFTFRVTVGDITCTGEGTSKKLAKHRAAEAAINILKANASICFAVPDPLMPDPSKQPKNQLNPIGSLQELAIHHGWRLPEYTLSQEGGPAHKREYTTICRLESFMETGKGASKKQAKRNAAEKFLAKFSNISPENHISLTNVVGHSLGCTWHSLRNSPGEKINLLKRSLLSIPNTDYIQLLSEIAKEQGFNITYLDIDELSANGQYQCLAELSTSPITVCHGSGISCGNAQSDAAHNALQYLKIIAERK
B3: MORC2 (protein, UniProt Q9Y6X9 1-1032)
chain: MAFTNYSSLNRAQLTFEYLHTNSTTHEFLFGALAELVDNARDADATRIDIYAERREDLRGGFMLCFLDDGAGMDPSDAASVIQFGKSAKRTPESTQIGQYGNGLKSGSMRIGKDFILFTKKEDTMTCLFLSRTFHEEEGIDEVIVPLPTWNARTREPVTDNVEKFAIETELIYKYSPFRTEEEVMTQFMKIPGDSGTLVIIFNLKLMDNGEPELDIISNPRDIQMAETSPEGTKPERRSFRAYAAVLYIDPRMRIFIHGHKVQTKRLSCCLYKPRMYKYTSSRFKTRAEQEVKKAEHVARIAEEKAREAESKARTLEVRLGGDLTRDSRVMLRQVQNRAITLRREADVKKRIKEAKQRALKEPKELNFVFGVNIEHRDLDGMFIYNCSRLIKMYEKVGPQLEGGMACGGVVGVVDVPYLVLEPTHNKQDFADAKEYRHLLRAMGEHLAQYWKDIAIAQRGIIKFWDEFGYLSANWNQPPSSELRYKRRRAMEIPTTIQCDLCLKWRTLPFQLSSVEKDYPDTWVCSMNPDPEQDRCEASEQKQKVPLGTFRKDMKTQEEKQKQLTEKIRQQQEKLEALQKTTPIRSQADLKKLPLEVTTRPSTEEPVRRPQRPRSPPLPAVIRNAPSRPPSLPTPRPASQPRKAPVISSTPKLPALAAREEASTSRLLQPPEAPRKPANTLVKTASRPAPLVQQLSPSLLPNSKSPREVPSPKVIKTPVVKKTESPIKLSPATPSRKRSVAVSDEEEVEEEAERRKERCKRGRFVVKEEKKDSNELSDSAGEEDSADLKRAQKDKGLHVEVRVNREWYTGRVTAVEVGKHVVRWKVKFDYVPTDTTPRDRWVEKGSEDVRLMKPPSPEHQSLDTQQEGGEEEVGPVAQQAIAVAEPSTSECLRIEPDTTALSTNHETIDLLVQILRNCLRYFLPPSFPISKKQLSAMNSDELISFPLKEYFKQYEVGLQNLCNSYQSRADSRAKASEESLRTSERKLRETEEKLQKLRTNIVALLQKVQEDIDINTDDELDAYIEDLITKGD
B4: THRAP3 (protein, UniProt Q9Y2W1 1-955)
chain: MSKTNKSKSGSRSSRSRSASRSRSRSFSKSRSRSRSLSRSRKRRLSSRSRSRSYSPAHNRERNHPRVYQNRDFRGHNRGYRRPYYFRGRNRGFYPWGQYNRGGYGNYRSNWQNYRQAYSPRRGRSRSRSPKRRSPSPRSRSHSRNSDKSSSDRSRRSSSSRSSSNHSRVESSKRKSAKEKKSSSKDSRPSQAAGDNQGDEAKEQTFSGGTSQDTKASESSKPWPDATYGTGSASRASAVSELSPRERSPALKSPLQSVVVRRRSPRPSPVPKPSPPLSSTSQMGSTLPSGAGYQSGTHQGQFDHGSGSLSPSKKSPVGKSPPSTGSTYGSSQKEESAASGGAAYTKRYLEEQKTENGKDKEQKQTNTDKEKIKEKGSFSDTGLGDGKMKSDSFAPKTDSEKPFRGSQSPKRYKLRDDFEKKMADFHKEEMDDQDKDKAKGRKESEFDDEPKFMSKVIGANKNQEEEKSGKWEGLVYAPPGKEKQRKTEELEEESFPERSKKEDRGKRSEGGHRGFVPEKNFRVTAYKAVQEKSSSPPPRKTSESRDKLGAKGDFPTGKSSFSITREAQVNVRMDSFDEDLARPSGLLAQERKLCRDLVHSNKKEQEFRSIFQHIQSAQSQRSPSELFAQHIVTIVHHVKEHHFGSSGMTLHERFTKYLKRGTEQEAAKNKKSPEIHRRIDISPSTFRKHGLAHDEMKSPREPGYKAEGKYKDDPVDLRLDIERRKKHKERDLKRGKSRESVDSRDSSHSRERSAEKTEKTHKGSKKQKKHRRARDRSRSSSSSSQSSHSYKAEEYTEETEEREESTTGFDKSRLGTKDFVGPSERGGGRARGTFQFRARGRGWGRGNYSGNNNNNSNNDFQKRNREEEWDPEYTPKSKKYYLHDDREGEGSDKWVSRGRGRGAFPRGRGRFMFRKSSTSPKWAHDKFSGEEGEIEDDESGTENREEKDNIQPTTE
B5: SNW1 (protein, UniProt Q13573 1-536)
chain: MALTSFLPAPTQLSQDQLEAEEKARSQRSRQTSLVSSRREPPPYGYRKGWIPRLLEDFGDGGAFPEIHVAQYPLDMGRKKKMSNALAIQVDSEGKIKYDAIARQGQSKDKVIYSKYTDLVPKEVMNADDPDLQRPDEEAIKEITEKTRVALEKSVSQKVAAAMPVRAADKLAPAQYIRYTPSQQGVAFNSGAKQRVIRMVEMQKDPMEPPRFKINKKIPRGPPSPPAPVMHSPSRKMTVKEQQEWKIPPCISNWKNAKGYTIPLDKRLAADGRGLQTVHINENFAKLAEALYIADRKAREAVEMRAQVERKMAQKEKEKHEEKLREMAQKARERRAGIKTHVEKEDGEARERDEIRHDRRKERQHDRNLSRAAPDKRSKLQRNENRDISEVIALGVPNPRTSNEVQYDQRLFNQSKGMDSGFAGGEDEIYNVYDQAWRGGKDMAQSIYRPSKNLDKDMYGDDLEARIKTNRFVPDKEFSGSDRRQRGREGPVQFEEDPFGLDKFLEEAKQHGGSKRPSDSSRPKEHEHEGKKRRKE

target: LINE-1 encoded ORF1p (human) (human (endogenous in LUHMES)); experiment: affinity purification with mass spectrometry

binding, binds:
B1
B2
B3
B4
B5

From publication doi:10.1101/2025.09.05.674414
